Binding data for one molecule are collected here from article PMC6712401.

Chains of the proteins cited; added tags and fusions are not shown. Residues count along the entry.
UniProt Q9QUN7, residues 25-784: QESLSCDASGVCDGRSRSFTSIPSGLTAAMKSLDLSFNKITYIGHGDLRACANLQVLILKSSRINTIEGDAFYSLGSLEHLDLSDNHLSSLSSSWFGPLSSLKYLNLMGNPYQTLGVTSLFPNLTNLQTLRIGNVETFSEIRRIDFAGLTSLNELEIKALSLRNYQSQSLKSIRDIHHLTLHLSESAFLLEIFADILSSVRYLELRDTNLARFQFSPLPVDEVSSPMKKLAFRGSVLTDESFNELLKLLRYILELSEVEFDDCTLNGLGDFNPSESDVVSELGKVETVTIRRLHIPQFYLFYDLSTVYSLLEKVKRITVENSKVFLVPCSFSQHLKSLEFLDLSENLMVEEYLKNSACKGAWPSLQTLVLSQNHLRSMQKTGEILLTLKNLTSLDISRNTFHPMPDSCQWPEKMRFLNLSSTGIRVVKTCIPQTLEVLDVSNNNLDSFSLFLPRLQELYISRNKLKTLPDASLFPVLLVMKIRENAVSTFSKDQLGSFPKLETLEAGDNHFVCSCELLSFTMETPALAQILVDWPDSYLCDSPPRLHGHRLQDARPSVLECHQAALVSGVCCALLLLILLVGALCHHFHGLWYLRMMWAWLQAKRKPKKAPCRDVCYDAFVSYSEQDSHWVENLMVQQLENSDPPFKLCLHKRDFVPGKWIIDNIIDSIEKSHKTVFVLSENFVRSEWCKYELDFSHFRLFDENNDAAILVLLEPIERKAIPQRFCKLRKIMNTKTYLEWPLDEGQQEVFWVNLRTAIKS

These are yes or no findings as the source states them, for the method shown. In cells and extracts the contact can be indirect. Some binding calls cover weakened binding; strength is not graded here. For some assays here: Where a sequence is shown, tags or fusion partners need not be part of it.

In assay [1] the target is T1, exogenous histidine-tagged CD157 (UniProt Q64277).
T1 sequence: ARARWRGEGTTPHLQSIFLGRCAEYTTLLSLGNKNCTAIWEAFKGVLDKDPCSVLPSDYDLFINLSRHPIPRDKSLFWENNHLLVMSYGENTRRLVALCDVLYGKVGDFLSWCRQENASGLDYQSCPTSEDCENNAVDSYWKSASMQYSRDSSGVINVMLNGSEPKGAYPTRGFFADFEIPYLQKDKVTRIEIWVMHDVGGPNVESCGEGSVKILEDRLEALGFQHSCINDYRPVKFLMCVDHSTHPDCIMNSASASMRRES
The assay can be described thus: co-IP; only the target purified.

Assay [2] addresses Toll-like receptor 2 (mouse (endogenous in peritoneal macrophages)) (UniProt Q9QUN7). Briefly: co-IP.

B1: protein kinase Czeta (enzyme, UniProt Q02956 1-592)
chain: MPSRTDPKMDRSGGRVRLKAHYGGDILITSVDAMTTFKDLCEEVRDMCGLHQQHPLTLKWVDSEGDPCTVSSQMELEEAFRLVCQGRDEVLIIHVFPSIPEQPGMPCPGEDKSIYRRGARRWRKLYRANGHLFQAKRFNRGAYCGQCSERIWGLSRQGYRCINCKLLVHKRCHVLVPLTCRRHMDSVMPSQEPPVDDKNDGVDLPSEETDGIAYISSSRKHDNIKDDSEDLKPVIDGVDGIKISQGLGLQDFDLIRVIGRGSYAKVLLVRLKKNDQIYAMKVVKKELVHDDEDIDWVQTEKHVFEQASSNPFLVGLHSCFQTTSRLFLVIEYVNGGDLMFHMQRQRKLPEEHARFYAAEICIALNFLHERGIIYRDLKLDNVLLDADGHIKLTDYGMCKEGLGPGDTTSTFCGTPNYIAPEILRGEEYGFSVDWWALGVLMFEMMAGRSPFDIITDNPDMNTEDYLFQVILEKPIRIPRFLSVKASHVLKGFLNKDPKERLGCRPQTGFSDIKSHAFFRSIDWDLLEKKQTLPPFQPQITDDYGLDNFDTQFTSEPVQLTPDDEDVIKRIDQSEFEGFEYINPLLLSAEESV
With B1, the binding entry in assay [1] and in assay [2] was “binds” throughout.
